Laboratory results as given in patent publication US8883748B2, “Formulation for treating fungal infection” (Lifecare Innovations Pvt. Ltd., priority 2009, dated 2014).
At least one compound was matched to its structure with a doubt left.

Columns and labels:
Test in all cases: In-vitro antifungal spectrum and MIC, clinical isolates
Format in all cases: cell-based
[1] = tested on: Absidia corymbifera
Method: (§1) The experiments were carried out to determine antifungal spectrum and MIC of Nanosomal Amphotericin B vis-à-vis commonly used antifungals viz.
(§2) Amphotericin B, Voriconazole, Itraconazole and Fluconazole to ascertain efficacy against pathogenic yeasts and moulds including dermatophytes.

[2] = tested on: Apophysomyces elegans
Method: as §1, §2

[3] = tested on: Aspergillus flavus, A. fumigatus
Method: as §1, §2

[4] = tested on: Candida albicans
Method: as §1, §2

[5] = tested on: Cryptococcus neoformans
Method: as §1, §2

[6] = tested on: Curvularia spp.
Method: as §1, §2

[7] = tested on: Mucor spp.
Method: as §1, §2

[8] = tested on: Paeciliomyces spp.
Method: as §1, §2

[9] = tested on: Phialophora verrucosa
Method: as §1, §2

[10] = tested on: Rhizopus arrhizus, R. pusilus
Method: as §1, §2

[11] = tested on: Scytalidum dimidatum
Method: as §1, §2

[12] = tested on: Sporothrix schenckii
Method: as §1, §2

[13] = tested on: Trichophyton rubrum
Method: as §1, §2

CCC(C)n1ncn(-c2ccc(N3CCN(c4ccc(OCC5COC(Cn6cncn6)(c6ccc(Cl)cc6Cl)O5)cc4)CC3)cc2)c1=O (stereo not shown) [Itraconazole]
Susceptibility category [1]: Resistant
Susceptibility category [2]: Resistant
Susceptibility category [3]: Variable
Susceptibility category [4]: Variable
Susceptibility category [5]: Intermediate
Susceptibility category [6]: Resistant
Susceptibility category [7]: Resistant
Susceptibility category [8]: Variable
Susceptibility category [9]: Resistant
Susceptibility category [10]: Resistant
Susceptibility category [11]: Resistant
Susceptibility category [12]: Variable
Susceptibility category [13]: Resistant
